Experimental data reported in publication PMC8268430.
Results are given in words; binding and its absence hold for the method and conditions named. Binding calls can cover weak binding; strength is not graded here. Sequences can lack the tags named with a protein. For some assays here: In cells and extracts the contact can be indirect.

Legend:
[1] = biological target: T1, NAC102 fused to the GAL4 DNA-binding domain (BD) (Arabidopsis thaliana) (UniProt Q8H115); assay: two-hybrid; NAC102 fused to GAL4 BD as bait (pGBKT7, Y187), PEP and NEP subunits fused to GAL4 AD as prey (pGADT7, AH109); mated, diploids plated on DDO and on QDO + 10 mM 3-AT, 28 °C; growth compared with the AD control
T1 sequence: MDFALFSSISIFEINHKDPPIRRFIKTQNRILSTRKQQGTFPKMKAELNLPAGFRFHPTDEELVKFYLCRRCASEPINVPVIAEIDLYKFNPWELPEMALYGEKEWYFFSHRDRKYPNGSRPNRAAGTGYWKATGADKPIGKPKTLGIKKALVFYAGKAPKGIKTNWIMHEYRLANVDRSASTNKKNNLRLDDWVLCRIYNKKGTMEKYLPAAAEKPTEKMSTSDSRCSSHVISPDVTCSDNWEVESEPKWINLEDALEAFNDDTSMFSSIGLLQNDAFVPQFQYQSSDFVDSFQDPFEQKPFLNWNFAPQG

[2] = biological target: T2, NAC102-eYFP (Arabidopsis thaliana) (UniProt Q8H115); assay: co-IP; total proteins of 8-day-old NAC102-eYFP transgenic seedlings, GFP-Trap beads 1 h; IP buffer 50 mM Tris-HCl pH 7.4, 150 mM NaCl, 1% Triton X-100, 1% sodium deoxycholate, 20 mM EDTA; wash buffer also with 0.1% SDS; blots with antibodies against rpoA, rpoB, rpoC1, rpoC2, rpoTp, rpoTmp; SSU-eYFP line as negative control; repeated twice
T2 sequence: T1 sequence

Row | binding [1] | binding [2] | Substance
1 | binds |  | rpoTmp fused to the GAL4 activation domain (AD) (Arabidopsis thaliana)
2 |  | binds | rpoTmp (endogenous)
